Data taken from article PMC4516936 (Toxins, 2015).
No constants are given. Whether binding was seen depends on the method and setting. Some entries that bind do so weakly or less than the wild type.

By UniProt entry, the sequences of proteins in these tests, tags left out. Residues count along the entry.
UniProt P01556, residues 22-124: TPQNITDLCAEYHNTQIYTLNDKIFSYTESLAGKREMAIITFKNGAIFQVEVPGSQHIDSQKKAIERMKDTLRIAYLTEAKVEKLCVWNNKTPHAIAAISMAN
cholera toxin A1 subunit (CTA1), reduced, free (P01555, residues 19-212): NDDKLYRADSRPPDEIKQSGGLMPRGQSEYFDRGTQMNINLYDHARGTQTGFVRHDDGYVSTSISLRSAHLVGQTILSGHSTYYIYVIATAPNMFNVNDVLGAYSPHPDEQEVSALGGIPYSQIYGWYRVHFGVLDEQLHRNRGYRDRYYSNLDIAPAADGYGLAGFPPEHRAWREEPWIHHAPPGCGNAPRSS
cholera toxin A2 subunit (CTA2) (P01555, residues 213-258): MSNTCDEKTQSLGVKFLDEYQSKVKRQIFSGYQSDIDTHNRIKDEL
UniProt P07237, residues 18-508: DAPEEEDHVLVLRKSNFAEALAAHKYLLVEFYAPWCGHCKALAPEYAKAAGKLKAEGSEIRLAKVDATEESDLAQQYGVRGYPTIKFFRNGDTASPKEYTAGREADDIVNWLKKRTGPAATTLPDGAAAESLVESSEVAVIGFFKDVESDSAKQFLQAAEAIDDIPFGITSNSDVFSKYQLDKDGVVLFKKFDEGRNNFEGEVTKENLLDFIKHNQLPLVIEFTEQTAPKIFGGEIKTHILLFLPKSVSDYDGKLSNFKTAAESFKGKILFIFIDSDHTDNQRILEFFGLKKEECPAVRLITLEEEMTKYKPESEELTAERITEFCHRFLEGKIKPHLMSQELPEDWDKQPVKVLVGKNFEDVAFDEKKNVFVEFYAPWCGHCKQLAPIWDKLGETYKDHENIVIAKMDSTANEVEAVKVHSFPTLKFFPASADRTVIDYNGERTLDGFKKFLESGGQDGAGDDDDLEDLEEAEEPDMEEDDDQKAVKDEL

Assays:
Assay in all cases: SPR; both purified
[1] = molecular target: cholera toxin B subunit pentamer (CTB5) (UniProt P01556)
[2] = molecular target: reconstituted cholera toxin holotoxin (CTA1 re-associated with CTA2/CTB5) (UniProt P01555)
CTA2/CTB5 complex = CTA2/CTB5 complex (UniProt P01555)

cholera toxin A2 subunit (CTA2) (from UniProt P01555 213-258) (peptide)
binding [1]: binds

protein disulfide isomerase (PDI), reduced (from UniProt P07237 18-508) (enzyme)
binding [2]: binds

cholera toxin A1 subunit (CTA1), reduced, free (from UniProt P01555 19-212) (enzyme)
binding (CTA2/CTB5 complex): binds
